The exact form of at least one protein or probe is not confirmed. For some assays here: A negative result means that nothing was seen under these conditions.

The test system of data set [1] is GST-Kat1 C402A/H405A (Kluyveromyces lactis). Description: EMSA. The settings on record: 5 mM Mg2+, bound normally; EMSA: 50 mM Tris-HCl (pH not given), 0.5 mM EDTA, 1 mM DTT, 100 ug/ml BSA, 7 ng/ul ssDNA, 5 mM MgCl2, 60 min on ice (4 C), ~1.4 nM probe; recombinant protein; protein details: N-terminal GST; label: 32P 5' end; letters put together from the description. (In general: In EMSA bound probe runs differently from free probe, usually more slowly.)

Data set [2] deals with GST-Kat1 C130A/C133A (Kluyveromyces lactis). Description: EMSA. Particulars: 5 mM Mg2+, 5-40 nM; EMSA: 50 mM Tris-HCl (pH not given), 0.5 mM EDTA, 1 mM DTT, 100 ug/ml BSA, 7 ng/ul ssDNA, 5 mM MgCl2, 60 min on ice (4 C), ~1.4 nM probe; recombinant protein; protein details: N-terminal GST; label: 32P 5' end; letters put together from the description.

As to “GACATGGAAAGGAAGACATGGTTGGTCTGATTTCATTAACGTTTCAGGTATACATCAAAATTCAGTGAATTTAATTCTGTCGTTTGAAACCAGTTTAGGTGAAATTGGATTAGGTGGTGAATTGATACATAGTAAATAATTACTGGTCCATAATTTTTGTGAATATTTATGCTCTTTATACTATGTAGTTTTTATCCTGAATATTAACGATTGCTCACCTAAATTTCTCGTTTAAAATCCCTATAATGTGAATGGTTTTAGATGATTCATGGTGTTTTTATTAGTGACCGAAATGTTTAGTTTTGGATACTTGATGATAGAATAAAGAGAAGTGTTATGTAAAAAGTGTTAATTCATGTTAAATTCACTACCTTCTTGAGATTCAATTCACACCATTTGATGGTGAATATATCCATCTTAATCAGACGTATACAGAATTCACCTTCAGATGTGTAAGAGTTTTATGTATTCCAATATGTCATTTGTCAATTTGTCTGCATTTCAAACAAAGGAAAAATAAACTTAAGGACATATATCTGAAAATATACCACATAGATACGTCCCTGTTTTAGATACAGC (double strand) [MATa1-MATa2 intergenic probe (577 bp; 579 bp in Fig S5)]”, the results for the binding result in data set [1] and in data set [2] were “binds” and “no binding”, respectively.

Values taken from PMC4763223.
